Assay results from publication PMC7943567.
These are yes or no findings as the source states them, for the method shown. Binding seen in cells or lysates may run through a third protein. For some assays here: Sequences can lack the tags named with a protein.

Sequences of proteins named here, by UniProt entry; tags and fusion partners are left off. Residues count along the entry.
UniProt P08581, residues 25-931: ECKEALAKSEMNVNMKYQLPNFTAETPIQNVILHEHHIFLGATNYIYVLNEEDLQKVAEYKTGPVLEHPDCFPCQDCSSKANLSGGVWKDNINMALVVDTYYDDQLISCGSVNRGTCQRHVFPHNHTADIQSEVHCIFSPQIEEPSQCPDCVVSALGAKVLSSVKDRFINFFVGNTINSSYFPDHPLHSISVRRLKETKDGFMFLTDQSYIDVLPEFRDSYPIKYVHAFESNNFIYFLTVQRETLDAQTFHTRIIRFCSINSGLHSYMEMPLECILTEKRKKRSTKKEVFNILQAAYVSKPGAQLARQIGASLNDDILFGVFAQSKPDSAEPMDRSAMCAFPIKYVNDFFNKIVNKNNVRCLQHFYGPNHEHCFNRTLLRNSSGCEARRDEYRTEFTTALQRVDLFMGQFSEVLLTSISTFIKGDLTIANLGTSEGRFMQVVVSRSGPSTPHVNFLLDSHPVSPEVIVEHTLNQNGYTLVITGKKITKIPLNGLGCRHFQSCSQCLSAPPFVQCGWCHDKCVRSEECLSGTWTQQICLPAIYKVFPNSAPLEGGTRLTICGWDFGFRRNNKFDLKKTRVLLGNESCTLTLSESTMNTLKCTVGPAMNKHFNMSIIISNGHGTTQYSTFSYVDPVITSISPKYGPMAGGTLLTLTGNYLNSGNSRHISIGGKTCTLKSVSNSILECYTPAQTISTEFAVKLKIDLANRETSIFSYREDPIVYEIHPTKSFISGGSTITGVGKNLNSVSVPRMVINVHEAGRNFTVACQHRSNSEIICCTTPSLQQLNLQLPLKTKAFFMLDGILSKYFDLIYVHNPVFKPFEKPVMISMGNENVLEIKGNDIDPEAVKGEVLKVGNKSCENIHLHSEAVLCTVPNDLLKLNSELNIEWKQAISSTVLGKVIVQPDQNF
UniProt P06731, residues 35-142: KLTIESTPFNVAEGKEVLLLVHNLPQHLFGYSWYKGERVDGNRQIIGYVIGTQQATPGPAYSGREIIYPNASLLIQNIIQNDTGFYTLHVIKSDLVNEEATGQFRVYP
UniProt P02751, residues 1539-1631: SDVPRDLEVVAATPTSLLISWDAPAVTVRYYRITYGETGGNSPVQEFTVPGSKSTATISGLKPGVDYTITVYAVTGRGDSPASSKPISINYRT
UniProt P78324, residues 31-148: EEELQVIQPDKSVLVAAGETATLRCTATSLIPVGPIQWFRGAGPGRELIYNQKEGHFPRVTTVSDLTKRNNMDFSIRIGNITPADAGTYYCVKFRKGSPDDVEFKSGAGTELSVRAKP
UniProt P01241, residues 27-217: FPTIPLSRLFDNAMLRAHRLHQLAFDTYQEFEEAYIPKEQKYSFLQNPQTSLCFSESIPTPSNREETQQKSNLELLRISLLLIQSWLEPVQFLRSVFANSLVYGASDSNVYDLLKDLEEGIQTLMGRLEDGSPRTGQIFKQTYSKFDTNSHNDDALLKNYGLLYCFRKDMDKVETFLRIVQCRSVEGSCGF
UniProt P02768, residues 25-609: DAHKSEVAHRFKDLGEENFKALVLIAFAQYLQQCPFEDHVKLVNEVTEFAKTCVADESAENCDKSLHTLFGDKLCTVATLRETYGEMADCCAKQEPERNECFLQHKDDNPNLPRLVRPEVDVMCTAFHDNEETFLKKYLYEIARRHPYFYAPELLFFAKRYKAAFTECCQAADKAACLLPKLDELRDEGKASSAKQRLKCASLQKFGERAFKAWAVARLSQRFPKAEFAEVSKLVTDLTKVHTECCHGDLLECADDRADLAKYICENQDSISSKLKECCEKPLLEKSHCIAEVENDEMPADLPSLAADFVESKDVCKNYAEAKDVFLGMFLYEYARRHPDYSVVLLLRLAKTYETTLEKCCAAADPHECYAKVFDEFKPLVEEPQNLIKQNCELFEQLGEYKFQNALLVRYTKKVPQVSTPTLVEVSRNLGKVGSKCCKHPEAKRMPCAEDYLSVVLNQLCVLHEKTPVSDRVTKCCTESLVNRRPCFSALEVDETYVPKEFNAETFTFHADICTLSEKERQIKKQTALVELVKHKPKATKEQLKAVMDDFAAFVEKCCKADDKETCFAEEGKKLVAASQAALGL
UniProt P05187, residues 23-506: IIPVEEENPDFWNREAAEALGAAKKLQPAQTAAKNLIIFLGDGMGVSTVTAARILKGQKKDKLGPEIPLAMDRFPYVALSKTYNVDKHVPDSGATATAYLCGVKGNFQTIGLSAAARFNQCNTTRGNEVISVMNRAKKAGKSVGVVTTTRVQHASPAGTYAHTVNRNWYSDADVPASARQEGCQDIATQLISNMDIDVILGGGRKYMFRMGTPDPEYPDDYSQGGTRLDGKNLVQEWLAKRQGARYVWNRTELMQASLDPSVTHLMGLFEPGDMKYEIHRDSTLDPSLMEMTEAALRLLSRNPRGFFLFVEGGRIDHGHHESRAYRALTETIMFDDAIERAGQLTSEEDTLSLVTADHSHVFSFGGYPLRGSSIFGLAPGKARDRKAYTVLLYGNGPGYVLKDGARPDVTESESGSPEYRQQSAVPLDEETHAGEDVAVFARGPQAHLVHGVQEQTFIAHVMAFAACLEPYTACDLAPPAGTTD

Tests used:
[1] = biological target: soluble ectodomain fragment of human MET (residues 1-931), tagged, captured on beads (human) (UniProt P08581); experiment: pull-down; tagged PlxnB1(1-535) or MET(1-931) ectodomain captured on Protein A, NZ-1 or PMab-1 beads, incubated with culture supernatants containing the grafted or control proteins; eluted with SDS buffer, Coomassie-stained SDS-PAGE; only the target purified
[2] = biological target: T1, soluble ectodomain fragment of human PlxnB1 (residues 1-535), tagged, captured on beads (human) (UniProt O43157); experiment: as above
T1 sequence: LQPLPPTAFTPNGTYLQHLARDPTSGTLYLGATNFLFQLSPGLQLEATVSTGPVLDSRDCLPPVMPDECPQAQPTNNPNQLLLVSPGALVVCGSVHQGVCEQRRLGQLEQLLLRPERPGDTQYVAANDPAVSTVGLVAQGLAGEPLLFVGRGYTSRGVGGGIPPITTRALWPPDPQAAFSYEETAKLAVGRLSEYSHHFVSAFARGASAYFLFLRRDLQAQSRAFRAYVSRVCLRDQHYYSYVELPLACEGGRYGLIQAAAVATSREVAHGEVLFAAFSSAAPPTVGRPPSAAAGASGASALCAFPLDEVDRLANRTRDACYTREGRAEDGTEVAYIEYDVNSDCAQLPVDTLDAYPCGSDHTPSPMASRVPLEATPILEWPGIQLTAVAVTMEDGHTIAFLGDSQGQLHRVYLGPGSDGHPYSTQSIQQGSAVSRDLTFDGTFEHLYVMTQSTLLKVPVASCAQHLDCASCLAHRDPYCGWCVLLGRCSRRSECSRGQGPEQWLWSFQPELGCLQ

Substance: CEA-Fc, non-grafted control (from UniProt P06731 35-142) (Fc fusion)
- binding [1]: no binding
- binding [2]: no binding

Substance: Fn10-Fc, non-grafted control (from UniProt P02751-15 1539-1631) (Fc fusion)
- binding [1]: no binding
- binding [2]: no binding

Substance: SIRPα-Fc, non-grafted control (from UniProt P78324 31-148) (Fc fusion)
- binding [1]: no binding
- binding [2]: no binding

Substance: human IgG1 Fc, non-grafted control (from UniProt P01857 104-330) (domain or fragment)
- binding [1]: no binding
- binding [2]: no binding

Substance: human growth hormone, non-grafted control (from UniProt P01241 27-217)
- binding [1]: no binding
- binding [2]: no binding

Substance: human serum albumin, non-grafted control (from UniProt P02768 25-609)
- binding [1]: no binding
- binding [2]: no binding

Substance: placental alkaline phosphatase, non-grafted control (from UniProt P05187 23-506) (enzyme)
- binding [1]: no binding
- binding [2]: no binding
